Results are given in words; binding and its absence hold for the method and conditions named. In cells and extracts the contact can be indirect. Here binding means that the protein was enriched with, or labelled near, the bait; the list need not be complete.

Chains of the proteins cited; added tags and fusions are not shown.
UniProt Q15759: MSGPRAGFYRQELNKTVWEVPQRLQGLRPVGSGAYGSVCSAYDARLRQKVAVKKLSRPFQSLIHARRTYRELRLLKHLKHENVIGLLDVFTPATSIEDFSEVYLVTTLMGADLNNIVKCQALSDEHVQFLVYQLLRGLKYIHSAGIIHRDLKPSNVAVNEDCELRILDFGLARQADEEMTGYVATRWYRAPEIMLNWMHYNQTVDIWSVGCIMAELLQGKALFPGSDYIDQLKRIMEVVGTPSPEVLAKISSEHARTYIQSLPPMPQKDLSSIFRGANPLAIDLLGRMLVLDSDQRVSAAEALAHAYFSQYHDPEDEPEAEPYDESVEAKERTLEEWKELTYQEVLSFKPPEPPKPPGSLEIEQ

The target in the experiment is SidBait-p38β (UniProt Q15759). Put plainly: proximity labelling; only the target purified.

B1: MAP2K4 (enzyme, UniProt P45985 1-399)
chain: MAAPSPSGGGGSGGGSGSGTPGPVGSPAPGHPAVSSMQGKRKALKLNFANPPFKSTARFTLNPNPTGVQNPHIERLRTHSIESSGKLKISPEQHWDFTAEDLKDLGEIGRGAYGSVNKMVHKPSGQIMAVKRIRSTVDEKEQKQLLMDLDVVMRSSDCPYIVQFYGALFREGDCWICMELMSTSFDKFYKYVYSVLDDVIPEEILGKITLATVKALNHLKENLKIIHRDIKPSNILLDRSGNIKLCDFGISGQLVDSIAKTRDAGCRPYMAPERIDPSASRQGYDVRSDVWSLGITLYELATGRFPYPKWNSVFDQLTQVVKGDPPQLSNSEEREFSPSFINFVNLCLTKDESKRPKYKELLKHPFILMYEERAVEVACYVCKILDQMPATPSSPMYVD
Turning to B1, the binding entry is “binds”.

For the origin of these results see article PMC12865202.
